Compound in this experiment: Cc1nc(Nc2ncc(C(=O)Nc3c(C)cccc3Cl)s2)cc(N2CCN(CCO)CC2)n1 [dasatinib]
As to the kind of experiment: log2 fold change of tryptic peptide abundance, ligand vs vehicle (limited proteolysis) (log2 ratio); higher = more trypsin-susceptible (destabilized). The conditions noted are these: ligand concentration: 5 uM; sample: K562 cleared lysate.

Chains of the proteins cited; added tags and fusions are not shown. Lines headed by an entry give the natural chain unless they say otherwise; changes in a name come on top.
UniProt Q15058: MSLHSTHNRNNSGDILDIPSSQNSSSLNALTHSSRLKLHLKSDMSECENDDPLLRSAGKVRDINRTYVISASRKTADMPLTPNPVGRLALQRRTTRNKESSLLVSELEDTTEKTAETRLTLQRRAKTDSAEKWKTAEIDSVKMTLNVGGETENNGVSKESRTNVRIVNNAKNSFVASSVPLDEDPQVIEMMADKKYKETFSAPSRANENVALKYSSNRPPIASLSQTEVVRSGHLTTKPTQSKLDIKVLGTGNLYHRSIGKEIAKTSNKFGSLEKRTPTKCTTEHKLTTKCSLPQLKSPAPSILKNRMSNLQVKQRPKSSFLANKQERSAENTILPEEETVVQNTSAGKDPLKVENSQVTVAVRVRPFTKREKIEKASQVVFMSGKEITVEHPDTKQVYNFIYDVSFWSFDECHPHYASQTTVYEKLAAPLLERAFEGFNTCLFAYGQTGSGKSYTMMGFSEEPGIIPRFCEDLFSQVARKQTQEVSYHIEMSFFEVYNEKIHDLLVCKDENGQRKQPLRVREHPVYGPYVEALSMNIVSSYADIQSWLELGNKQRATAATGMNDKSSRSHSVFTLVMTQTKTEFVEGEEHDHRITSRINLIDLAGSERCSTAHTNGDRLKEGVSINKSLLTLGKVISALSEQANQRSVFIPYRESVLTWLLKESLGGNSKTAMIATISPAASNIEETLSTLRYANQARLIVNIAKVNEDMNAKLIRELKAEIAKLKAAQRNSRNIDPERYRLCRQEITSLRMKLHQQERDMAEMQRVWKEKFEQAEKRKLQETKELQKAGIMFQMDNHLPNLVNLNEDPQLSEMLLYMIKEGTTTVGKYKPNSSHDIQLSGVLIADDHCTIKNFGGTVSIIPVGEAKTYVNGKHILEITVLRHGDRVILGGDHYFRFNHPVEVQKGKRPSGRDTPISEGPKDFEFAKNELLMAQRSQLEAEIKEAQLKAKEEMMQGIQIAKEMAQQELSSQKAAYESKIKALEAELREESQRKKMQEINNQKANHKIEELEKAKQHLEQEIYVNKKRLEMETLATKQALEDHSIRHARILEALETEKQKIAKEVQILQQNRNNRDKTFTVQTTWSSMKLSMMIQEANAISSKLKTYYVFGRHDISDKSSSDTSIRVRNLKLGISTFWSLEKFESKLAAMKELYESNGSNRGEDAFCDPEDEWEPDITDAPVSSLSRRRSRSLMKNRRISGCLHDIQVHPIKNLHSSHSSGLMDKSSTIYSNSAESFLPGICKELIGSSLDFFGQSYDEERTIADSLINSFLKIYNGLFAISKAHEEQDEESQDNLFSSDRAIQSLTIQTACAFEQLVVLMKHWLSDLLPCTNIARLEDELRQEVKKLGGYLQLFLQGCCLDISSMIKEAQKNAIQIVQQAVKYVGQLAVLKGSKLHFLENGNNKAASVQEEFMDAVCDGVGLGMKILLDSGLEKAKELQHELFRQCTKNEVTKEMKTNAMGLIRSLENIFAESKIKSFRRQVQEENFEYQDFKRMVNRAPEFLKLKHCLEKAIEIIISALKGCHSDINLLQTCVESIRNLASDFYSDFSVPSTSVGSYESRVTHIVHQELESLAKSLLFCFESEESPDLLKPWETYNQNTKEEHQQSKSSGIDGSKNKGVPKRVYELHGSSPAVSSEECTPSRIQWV
UniProt Q3B726, whole entry: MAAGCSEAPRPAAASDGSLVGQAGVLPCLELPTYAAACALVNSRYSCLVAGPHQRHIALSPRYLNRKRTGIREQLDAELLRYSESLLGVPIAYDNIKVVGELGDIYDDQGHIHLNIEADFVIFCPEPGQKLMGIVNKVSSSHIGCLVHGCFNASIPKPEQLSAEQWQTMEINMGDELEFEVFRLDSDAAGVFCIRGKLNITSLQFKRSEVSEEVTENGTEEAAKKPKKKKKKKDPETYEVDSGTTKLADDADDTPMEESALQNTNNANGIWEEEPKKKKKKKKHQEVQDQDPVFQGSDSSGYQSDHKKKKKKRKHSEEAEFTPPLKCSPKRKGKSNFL
UniProt Q16864, whole entry: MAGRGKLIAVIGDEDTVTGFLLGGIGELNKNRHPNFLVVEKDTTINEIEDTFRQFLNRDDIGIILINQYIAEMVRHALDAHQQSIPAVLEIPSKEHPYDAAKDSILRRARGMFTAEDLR
UniProt Q2TAZ0: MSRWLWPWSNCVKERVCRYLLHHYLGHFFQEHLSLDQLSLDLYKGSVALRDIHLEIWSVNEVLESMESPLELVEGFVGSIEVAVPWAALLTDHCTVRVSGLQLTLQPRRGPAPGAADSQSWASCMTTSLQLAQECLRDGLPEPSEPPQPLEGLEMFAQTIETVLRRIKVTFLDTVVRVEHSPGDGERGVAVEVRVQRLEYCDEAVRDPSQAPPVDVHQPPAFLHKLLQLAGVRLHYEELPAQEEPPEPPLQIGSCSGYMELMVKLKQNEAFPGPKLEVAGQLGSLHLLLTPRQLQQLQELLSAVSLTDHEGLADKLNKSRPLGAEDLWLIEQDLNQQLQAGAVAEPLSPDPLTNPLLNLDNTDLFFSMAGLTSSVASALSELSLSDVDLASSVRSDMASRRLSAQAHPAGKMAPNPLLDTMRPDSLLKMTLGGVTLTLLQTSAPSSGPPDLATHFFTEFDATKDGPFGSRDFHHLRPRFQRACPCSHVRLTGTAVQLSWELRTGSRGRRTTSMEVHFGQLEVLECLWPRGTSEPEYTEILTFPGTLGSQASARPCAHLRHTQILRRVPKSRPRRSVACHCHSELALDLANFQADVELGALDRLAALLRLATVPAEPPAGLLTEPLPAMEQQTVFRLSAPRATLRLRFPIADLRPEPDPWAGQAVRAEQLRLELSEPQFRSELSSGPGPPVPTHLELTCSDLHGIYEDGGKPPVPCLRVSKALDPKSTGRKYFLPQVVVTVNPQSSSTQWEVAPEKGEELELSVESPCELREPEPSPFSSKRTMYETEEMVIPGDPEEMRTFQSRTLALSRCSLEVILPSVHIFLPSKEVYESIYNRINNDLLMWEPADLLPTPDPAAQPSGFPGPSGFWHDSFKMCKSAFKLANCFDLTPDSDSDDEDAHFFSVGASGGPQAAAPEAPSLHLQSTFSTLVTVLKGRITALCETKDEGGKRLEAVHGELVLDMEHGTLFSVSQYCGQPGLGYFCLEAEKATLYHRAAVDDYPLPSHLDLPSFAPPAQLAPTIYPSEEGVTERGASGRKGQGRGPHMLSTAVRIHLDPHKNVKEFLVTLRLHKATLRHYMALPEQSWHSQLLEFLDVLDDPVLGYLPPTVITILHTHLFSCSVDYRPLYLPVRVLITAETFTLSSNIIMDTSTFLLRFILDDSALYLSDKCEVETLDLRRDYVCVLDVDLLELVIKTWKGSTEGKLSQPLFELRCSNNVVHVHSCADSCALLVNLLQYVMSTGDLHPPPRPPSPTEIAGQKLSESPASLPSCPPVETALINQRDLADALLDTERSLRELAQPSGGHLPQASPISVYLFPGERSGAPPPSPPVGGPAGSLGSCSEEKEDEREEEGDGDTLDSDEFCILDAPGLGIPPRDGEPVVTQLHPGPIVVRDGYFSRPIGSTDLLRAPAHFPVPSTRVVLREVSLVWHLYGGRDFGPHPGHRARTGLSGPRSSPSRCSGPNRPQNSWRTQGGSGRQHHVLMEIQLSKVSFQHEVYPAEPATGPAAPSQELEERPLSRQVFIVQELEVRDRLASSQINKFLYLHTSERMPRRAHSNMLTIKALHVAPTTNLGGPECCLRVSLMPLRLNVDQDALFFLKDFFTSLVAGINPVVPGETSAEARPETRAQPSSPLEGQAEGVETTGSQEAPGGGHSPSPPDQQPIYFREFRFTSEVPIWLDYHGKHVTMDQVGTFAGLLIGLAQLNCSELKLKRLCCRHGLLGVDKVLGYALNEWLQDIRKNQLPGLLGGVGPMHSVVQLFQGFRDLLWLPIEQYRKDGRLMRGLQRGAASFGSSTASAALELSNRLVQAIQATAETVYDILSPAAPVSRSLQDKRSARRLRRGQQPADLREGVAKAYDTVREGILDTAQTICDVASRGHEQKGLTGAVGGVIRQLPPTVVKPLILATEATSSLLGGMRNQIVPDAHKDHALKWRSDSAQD
UniProt Q2TB18: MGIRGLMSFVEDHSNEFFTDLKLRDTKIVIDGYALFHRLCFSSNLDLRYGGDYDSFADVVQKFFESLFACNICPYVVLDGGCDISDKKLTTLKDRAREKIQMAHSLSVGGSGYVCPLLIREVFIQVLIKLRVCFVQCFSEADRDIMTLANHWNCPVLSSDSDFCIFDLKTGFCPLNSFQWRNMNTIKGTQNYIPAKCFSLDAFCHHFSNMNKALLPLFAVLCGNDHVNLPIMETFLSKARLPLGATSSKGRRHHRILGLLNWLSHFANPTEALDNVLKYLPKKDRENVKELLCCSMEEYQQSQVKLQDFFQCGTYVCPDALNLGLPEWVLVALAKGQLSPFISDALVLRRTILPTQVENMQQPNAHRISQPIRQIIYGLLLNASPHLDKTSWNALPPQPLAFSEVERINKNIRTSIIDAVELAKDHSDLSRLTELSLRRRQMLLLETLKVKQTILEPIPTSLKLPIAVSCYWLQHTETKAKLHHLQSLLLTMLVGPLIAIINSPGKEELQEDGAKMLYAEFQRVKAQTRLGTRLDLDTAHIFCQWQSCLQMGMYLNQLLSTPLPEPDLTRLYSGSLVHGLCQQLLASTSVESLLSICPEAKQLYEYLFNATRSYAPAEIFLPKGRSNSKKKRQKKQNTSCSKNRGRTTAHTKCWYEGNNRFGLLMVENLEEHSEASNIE
UniProt Q2M3G4: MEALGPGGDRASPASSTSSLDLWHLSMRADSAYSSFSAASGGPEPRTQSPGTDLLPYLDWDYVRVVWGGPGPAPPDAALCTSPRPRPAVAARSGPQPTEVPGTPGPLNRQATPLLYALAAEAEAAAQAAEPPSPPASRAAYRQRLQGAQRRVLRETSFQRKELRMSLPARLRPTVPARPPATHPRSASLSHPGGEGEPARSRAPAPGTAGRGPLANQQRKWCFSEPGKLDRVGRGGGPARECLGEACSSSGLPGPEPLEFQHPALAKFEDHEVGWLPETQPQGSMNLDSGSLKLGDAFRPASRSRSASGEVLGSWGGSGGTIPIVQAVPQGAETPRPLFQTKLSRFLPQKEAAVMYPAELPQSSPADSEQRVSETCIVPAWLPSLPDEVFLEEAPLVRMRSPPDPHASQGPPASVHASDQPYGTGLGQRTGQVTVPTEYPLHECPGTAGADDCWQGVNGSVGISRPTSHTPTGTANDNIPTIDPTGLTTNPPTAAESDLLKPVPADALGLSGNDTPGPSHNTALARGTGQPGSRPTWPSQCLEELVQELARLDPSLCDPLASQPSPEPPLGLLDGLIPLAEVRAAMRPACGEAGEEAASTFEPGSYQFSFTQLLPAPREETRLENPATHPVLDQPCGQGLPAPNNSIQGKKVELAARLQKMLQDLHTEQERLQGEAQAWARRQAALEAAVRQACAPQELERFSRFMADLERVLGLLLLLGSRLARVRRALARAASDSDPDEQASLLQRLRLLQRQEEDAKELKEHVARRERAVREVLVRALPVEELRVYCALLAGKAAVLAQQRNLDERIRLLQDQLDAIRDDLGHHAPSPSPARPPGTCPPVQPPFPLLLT
UniProt Q1KMD3: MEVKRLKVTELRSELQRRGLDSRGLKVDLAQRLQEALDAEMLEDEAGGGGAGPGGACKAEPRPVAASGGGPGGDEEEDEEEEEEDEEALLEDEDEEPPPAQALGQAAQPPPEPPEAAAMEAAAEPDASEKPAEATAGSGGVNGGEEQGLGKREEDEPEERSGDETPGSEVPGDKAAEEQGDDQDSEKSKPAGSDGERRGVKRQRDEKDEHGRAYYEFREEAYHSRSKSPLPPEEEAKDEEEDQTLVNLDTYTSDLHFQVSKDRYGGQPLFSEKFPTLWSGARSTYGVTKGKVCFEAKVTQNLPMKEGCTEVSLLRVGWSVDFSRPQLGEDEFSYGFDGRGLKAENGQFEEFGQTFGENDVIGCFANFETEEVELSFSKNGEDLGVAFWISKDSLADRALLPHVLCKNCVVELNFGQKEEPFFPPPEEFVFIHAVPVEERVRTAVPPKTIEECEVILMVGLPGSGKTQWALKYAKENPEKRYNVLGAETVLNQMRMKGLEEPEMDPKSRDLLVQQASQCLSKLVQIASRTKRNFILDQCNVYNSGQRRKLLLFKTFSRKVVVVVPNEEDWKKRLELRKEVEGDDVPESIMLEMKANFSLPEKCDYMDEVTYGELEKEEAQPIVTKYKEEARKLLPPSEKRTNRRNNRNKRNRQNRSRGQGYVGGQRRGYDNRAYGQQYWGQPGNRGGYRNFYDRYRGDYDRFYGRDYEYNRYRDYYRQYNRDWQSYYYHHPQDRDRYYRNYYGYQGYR
UniProt Q16629: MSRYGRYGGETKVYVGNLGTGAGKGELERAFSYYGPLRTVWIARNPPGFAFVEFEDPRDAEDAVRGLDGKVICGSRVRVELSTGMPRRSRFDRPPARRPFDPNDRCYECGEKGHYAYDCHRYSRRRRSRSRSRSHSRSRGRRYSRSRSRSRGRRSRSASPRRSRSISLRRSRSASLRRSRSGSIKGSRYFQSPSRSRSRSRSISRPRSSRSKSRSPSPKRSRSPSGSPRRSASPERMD

The other results are listed elsewhere or left out. Most entries show no effect beyond the scatter of the controls.

For the target “NFE2 (peptide sequence: RKLETIVQLER, peptide start residue: 286) (UniProt Q16621)”, the log2 fold change is -0.273. As for “KIF14 (peptide sequence: NKESSLLVSELEDTTEKTAETR, peptide start residue: 97) (UniProt Q15058)”, the figure is 0.496. Take “TWISTNB (peptide sequence: SEVSEEVTENGTEEAAKKPK, peptide start residue: 208) (UniProt Q3B726)”: the log2 fold change came out at 0.263.

In the case of “UniProt Q1ED39 (peptide sequence: THKVDLGLPEKK, peptide start residue: 5)”, the log2 fold change was found to be 0.239.

In the case of “PMVK (peptide sequence: LVLLFSGKR, peptide start residue: 10) (UniProt Q15126)”, the log2 fold change was found to be 0.267. To “ATP6V1F (peptide sequence: NRHPNFLVVEK, peptide start residue: 31) (UniProt Q16864)” belongs -0.0482. To “ATG2A (peptide sequence: NQIVPDAHK, peptide start residue: 1917) (UniProt Q2TAZ0)” belongs 0.191; to “ASTE1 (peptide sequence: TILPTQVENMQQPNAHR, peptide start residue: 351) (UniProt Q2TB18)”, -0.662. To “SHROOM1 (peptide sequence: LLQDQLDAIR, peptide start residue: 812) (UniProt Q2M3G4)” belongs 0.497.

Take “HNRNPUL2 (peptide sequence: KEVEGDDVPESIMLEMK, peptide start residue: 577) (UniProt Q1KMD3)”: the log2 fold change is -0.131. Regarding “UniProt Q16629 (peptide sequence: CYECGEK, peptide start residue: 106)”, the log2 fold change amounted to 0.19.

Values taken from the supplement of paper PMC12819154, “High-throughput peptide-centric local stability assay extends protein–ligand identification to membrane proteins, tissues and bacteria” (Nature Structural & Molecular Biology, 2025).
